Consider one compound from PubChem BioAssay AID743327 (National Center for Advancing Translational Sciences (NCATS), 2014).

This list holds what a sample rich in hits left over. Calls of active or inactive are those of the source. The call rests on the fitted dose curve.

This assay is described as follows: qHTS profiling of Chloroquine Analogs as inhibitors of Plasmodium falciparum (HB3) proliferation. The note with it: P. falciparum HB3 proliferation; at 28.7 µM (top of the series). The text has this: Plasmodium falciparum is a virulent malarial parasite that kills 1-2 million people worldwide each year. Transmitted by mosquitoes, the sporozoite form of the parasite enters the blood stream to infect hepatocytes, where they become merozoites that infect red blood cells (erythrocytes). Within erythrocytes, merozoites begin a […] cycle of growth and division, after which the parasite is released to infect new red blood cells. Gametocytes, which form within erythrocytes as well, circulate in the bloodstream and are ingested by the mosquito, thereby completing the life cycle. To profile malarial isolates for differential chemical responses and to identify inhibitors of malarial growth, an assay that measures P. falciparum growth and replication within erythrocytes was employed. […] Because mature erythrocytes lack DNA, only Plasmodium-derived DNA is detected.
The SYBR Green viability assay was adapted from a method described previously (Plouffe et al., 2008). […] The following morning, fluorescence intensity at 485(14) nm excitation and 535(25) nm emission wavelengths was measured on an EnVision (Perkin Elmer) plate reader. Plate reads were normalized relative to the control inhibitor (0.29 uM artemisinin) and vehicle (DMSO) wells present on each plate and then corrected by an algorithm using vehicle-only control plates at the beginning and end of the compound plate stack.
As to `O=C(CCCCCCC(=O)Nc1ccccc1)NO`, the activity change, negative = inhibition is inactive: -101%.
